Test results as given in PubChem BioAssay AID463183 (Sanford-Burnham Center for Chemical Genomics, 2010).
The other results are listed elsewhere or left out. Shown are side measurements of this screen, not its main read-out; they come without a call. The list favours compounds with an active or inconclusive main result.

Assay: blockers of oleate-driven lipid droplets in liver cells – imaging, AML12 mouse hepatocytes, single concentration, high-content, confirmation (AID 463183);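 also: cells counted after overnight compound exposure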
Settings: BODIPY lipid droplet imaging, measured here: cell count, cytotoxicity, at 5.2 µM, droplets induced with 100 µM oleic acid

| SMILES | cell count [cells] |
| --- | --- |
| O=C(N/N=C/c1cn(-c2ccccc2)nc1-c1cc2ccccc2o1)c1ccccc1Br | 1670 |
| CCOc1ccc(CCNC(=O)CCc2nc(-c3ccc(OC)cc3)no2)cc1OCC | 1500 |
| Cn1c(=O)c(=O)n(C)c2cc(N3CCCC3)c(NS(=O)(=O)c3ccc(Cl)cc3)cc21 | 1600 |
| CCOc1ccc(C(C)NC(=O)Cc2ccccc2F)cc1OCC (centres undefined) | 1540 |
| CCOc1ccc(CN(C)C(=O)CNC(=O)Cc2cccc3ccccc23)cc1 | 1620 |
| Cc1c(Cl)sn(-c2ccc(Cl)cc2)c1=O | 1060 |
| COc1ccccc1Nc1ccc(NS(=O)(=O)c2ccc(C(C)=O)cc2)cc1 | 1590 |
| CS(=O)(=O)Nc1ccc(C(=O)Nc2ccccc2C(=O)NCc2ccco2)cc1 | 1600 |
| COC(=O)c1c(N2C(=O)[C@H]3[C@@H](C2=O)[C@]2(C(=O)Nc4c(C)cc(C)cc42)N2CCC[C@@H]32)sc(C)c1C | 1580 |
| Cc1ccc2cc(/C=N/NC(=O)[C@H]3C[C@@H]3c3ccccc3)c(Cl)nc2c1 | 1510 |
| COc1ccccc1Nc1nnc(SCC(=O)Nc2nc(-c3ccc(F)cc3)cs2)s1 | 1570 |
| COc1ccc(N=C2C(=Nc3ccc(OC)cc3)N(c3ccc(OC)cc3)C(=S)N2C)cc1 | 1600 |
| Cc1ccc(C(=O)NCCc2nc3ccccc3[nH]2)cc1[N+](=O)[O-] | 1570 |
| COC(=O)c1ccccc1NC(=O)c1cccc(NC(=O)c2ccc(Br)o2)c1C | 1580 |
| Cc1cc(C)c2nc(SCC(=O)N3CC(=O)Nc4ccccc43)c(C#N)cc2c1 | 405 |
| OCC[C@@H]1C[C@H](O)[C@@H](O)[C@]2(Cc3ccccc3O2)O1 | 1670 |
| CCOC(=O)CSc1c(-c2cccs2)[nH]c2ccccc12 | 1640 |
| Cc1ccc(NC(=O)C2CCCN(S(=O)(=O)c3c(C)noc3/C=C/N(C)C)C2)cc1F (centres undefined) | 1550 |
| CCC(Sc1nc2ccsc2c(=O)n1-c1ccc(Cl)c(C)c1)C(=O)NCc1ccco1 (centres undefined) | 1690 |
| CCC(=O)Nc1c2c(nn1-c1ccc(C)cc1)CS(=O)(=O)C2 | 1580 |

| SMILES | cell count [cells] |
| --- | --- |
| COc1ccc(C2(c3ccc(OC)cc3)NC(=O)N(CC(=O)Nc3ccc(OC)c(OC)c3)C2=O)cc1 | 1690 |
| CCc1cc(SC#N)cc(CC)c1NC(=O)CCl | 1550 |
| CCOc1cc(Br)c(CC(=O)NC2CCCCCC2)cc1OCC | 1540 |
| CCOc1ccccc1N=Nc1c(C)[nH]n(-c2ccccc2)c1=O | 1590 |
| CCN(CC)c1ccc(NC(=O)CN2CCN(S(=O)(=O)c3cc(Cl)ccc3OC)CC2)cc1 | 1640 |
| C#CC(=O)N(c1ccc(OC)c(OC)c1)C(C(=O)NC1CCCC1)c1cccs1 (centres undefined) | 7.5 |
| Cc1c(C(=O)O)sc2nc3n(c(=O)c12)CCC(C)CC3 (centres undefined) | 1650 |
| COC(=O)C1=C(C)N=c2s/c(=C3\C(=O)Nc4ccccc43)c(=O)n2C1c1ccccc1 (centres undefined) | 1580 |
| COC(=O)/C(=C/c1ccc2c(c1)c1ccccc1n2C)NC(=O)c1ccccc1 | 1620 |
| CCOC(=O)C1CCN(C(=O)C2(NC(=O)Nc3ccccc3Cl)CCCCC2)CC1 | 1570 |
| CCc1c(C#N)c(SCCC(=O)Nc2ccc(OC)cc2)nc2c1C(=O)CC(C)(C)C2 | 1540 |
| CCCSC(=O)N(CC)CC(=O)Nc1c(CC)cccc1CC | 1590 |
| COc1cc2c3nnc(-c4ccc(F)cc4)c-3cn(Cc3cccc(C)c3)c2cc1OC | 1660 |
| CCOC(=O)c1ccc(S(=O)(=O)NCC(c2ccc(N(C)C)cc2)c2c[nH]c3ccccc23)cc1 (centres undefined) | 1630 |
| Cc1cc(C)c(S(=O)(=O)N2CCOC2CNC(=O)C(=O)NCCc2c[nH]c3ccccc23)c(C)c1 (centres undefined) | 1580 |
| CCOC(=O)n1cc(-c2cnc(CNC(=O)C(C)(c3ccccc3)c3ccccc3)o2)c2ccccc21 | 1570 |
| CCOc1ccc(CCNC(=O)CCC(=O)N2CCOc3ccccc32)cc1OCC | 1580 |
| Cc1ccc(C(C(=O)NC(C)(C)C)N(Cc2ccco2)C(=O)CCC(=O)Nc2ccccn2)cc1 (centres undefined) | 1500 |
| Cc1sc(NC(=O)Cc2ccc3c(c2)OCO3)nc1-c1ccc2c(c1)CCN2C(=O)c1ccccc1F | 1470 |

Among those listed so far, these have a Cl atom.

| SMILES | cell count [cells] |
| --- | --- |
| Cn1c(=O)c(=O)n(C)c2cc(N3CCCC3)c(NS(=O)(=O)c3ccc(Cl)cc3)cc21 | 1600 |
| Cc1c(Cl)sn(-c2ccc(Cl)cc2)c1=O | 1060 |
| Cc1ccc2cc(/C=N/NC(=O)[C@H]3C[C@@H]3c3ccccc3)c(Cl)nc2c1 | 1510 |
| CCC(Sc1nc2ccsc2c(=O)n1-c1ccc(Cl)c(C)c1)C(=O)NCc1ccco1 (centres undefined) | 1690 |
| CCc1cc(SC#N)cc(CC)c1NC(=O)CCl | 1550 |
| CCN(CC)c1ccc(NC(=O)CN2CCN(S(=O)(=O)c3cc(Cl)ccc3OC)CC2)cc1 | 1640 |
| CCOC(=O)C1CCN(C(=O)C2(NC(=O)Nc3ccccc3Cl)CCCCC2)CC1 | 1570 |
